PubChem BioAssay AID1224830 | NIAID, 2016
Screen: 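Host factors that control LPS-induced TNF expression in human macrophages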 (primary screen). System: human THP-1 monocytic leukaemia cells, TNF dual-luciferase reporter clone, PMA-differentiated to macrophage-like cells. Reagents: siRNA pool against human genes, 50 nM. Duration: LPS for 4 h, given about 3 days after siRNA transfection. Treatment: bacterial LPS (TLR4 ligand), 10 ng/ml. Read-out: 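Ratio of firefly to renilla light, scaled to the plate median and expressed as a robust z-score per replicate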. Direction: TNF reporter robust z-score: higher = stronger TNF reporter response to LPS. Active means: 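a well is active when its z-score exceeds 2.8 or falls below -1.5; control wells carry no call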.
Here is a random part of about 18,000 deposited reagents. Of all reagents, about 2,900 (16%) got an active call. 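Calls are made per well; low scores hint the gene aids the LPS response, high scores that it dampens it.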 Repeated entries: four replicate wells of each siRNA pool.

Target gene	PubChem SID	TNF reporter robust z-score	activity call
CCN6	SID315452864	0.16	inactive
CCN6	SID315452864	-0.02	inactive
CCN6	SID315452864	0.51	inactive
CCN6	SID315452864	0.82	inactive
NEUROG2	SID315458791	-0.48	inactive
NEUROG2	SID315458791	0.06	inactive
NEUROG2	SID315458791	-0.98	inactive
NEUROG2	SID315458791	-0.36	inactive
USE1	SID315457907	0.58	inactive
USE1	SID315457907	0.59	inactive
USE1	SID315457907	1	inactive
USE1	SID315457907	1.36	inactive
GLOD5	SID315464703	-0.56	inactive
GLOD5	SID315464703	0.09	inactive
GLOD5	SID315464703	0.53	inactive
GLOD5	SID315464703	1.21	inactive
COG5	SID315454112	-0.7	inactive
COG5	SID315454112	-0.61	inactive
COG5	SID315454112	-0.29	inactive
COG5	SID315454112	0.02	inactive
RABAC1	SID315454197	0.69	inactive
RABAC1	SID315454197	-0.96	inactive
RABAC1	SID315454197	-0.51	inactive
RABAC1	SID315454197	-1.12	inactive

Entries above whose gene name begins with R or r (4):
Target gene	PubChem SID	TNF reporter robust z-score	activity call
RABAC1	SID315454197	0.69	inactive
RABAC1	SID315454197	-0.96	inactive
RABAC1	SID315454197	-0.51	inactive
RABAC1	SID315454197	-1.12	inactive

Additional records follow.
Target gene	PubChem SID	TNF reporter robust z-score	activity call
ZNF451	SID315455630	1.09	inactive
ZNF451	SID315455630	-0.5	inactive
ZNF451	SID315455630	-0.06	inactive
ZNF451	SID315455630	-0.67	inactive
TAAR5	SID315452991	-0.68	inactive
TAAR5	SID315452991	-0.46	inactive
TAAR5	SID315452991	-0.29	inactive
TAAR5	SID315452991	-0.04	inactive
CCNE2	SID315453071	-0.2	inactive
CCNE2	SID315453071	0.12	inactive
CCNE2	SID315453071	0.32	inactive
CCNE2	SID315453071	0.81	inactive
RDH8	SID315456349	0.39	inactive
RDH8	SID315456349	-0.53	inactive
RDH8	SID315456349	-0.89	inactive
RDH8	SID315456349	-1.04	inactive
PTCH2	SID315452710	-0.04	inactive
PTCH2	SID315452710	-0.81	inactive
PTCH2	SID315452710	0.89	inactive
PTCH2	SID315452710	0.7	inactive
NINL	SID315454907	0.82	inactive
NINL	SID315454907	-1.46	inactive
NINL	SID315454907	-0.87	inactive
NINL	SID315454907	-0.95	inactive
